# Source: patent US20230287071A1
# Target: HLA-B*44:05 (human)
# Test: UV peptide-exchange ELISA, yield grade
row,Binder,binding
1,ELVHMINW [ELVHMINW (SEQ ID NO: 97)],binds
2,SEESAGPLL [… (SEQ ID NO: 98)],binds
3,SECVKSLSF [… (SEQ ID NO: 99)],binds
4,SEENTGKTY [… (SEQ ID NO: 101)],binds
5,TELADLDAAW [… (SEQ ID NO: 102)],binds
6,AELFLTKSF [… (SEQ ID NO: 103)],binds
7,EEIFKTLNY [… (SEQ ID NO: 105)],binds
8,SVISDSPRSW [… (SEQ ID NO: 106)],binds
9,YQENPRAAW [… (SEQ ID NO: 107)],binds
10,QETNKVETY [… (SEQ ID NO: 108)],binds
11,KEVDPASNTYTL [… (SEQ ID NO: 1)],binds
12,EVEVGEVKSW [… (SEQ ID NO: 110)],binds
13,QEIDQKRLEF [… (SEQ ID NO: 111)],binds
14,AEIEADRSYQH [… (SEQ ID NO: 112)],binds
15,MEFKTLNKN [… (SEQ ID NO: 113)],binds
16,VEVNGVPRW [… (SEQ ID NO: 114)],binds
17,QEPFTRPVL [… (SEQ ID NO: 115)],binds
18,AEANPRDLGASW [… (SEQ ID NO: 116)],binds
19,SEVPVDSHY [… (SEQ ID NO: 117)],binds
20,SEVPVDSHYY [… (SEQ ID NO: 118)],binds
21,VEVKYEGHW [… (SEQ ID NO: 119)],binds
22,EEFLRPRSL [… (SEQ ID NO: 2)],binds
23,YENIPVDKV [… (SEQ ID NO: 121)],binds
24,GESVSWHLF [… (SEQ ID NO: 122)],binds
25,DEINHQSL [DEINHQSL (SEQ ID NO: 123)],binds
26,NENLDYAIL [… (SEQ ID NO: 124)],binds

row,Binder,binding
1,LEVLHQGQW [… (SEQ ID NO: 125)],binds
2,SEASQSPQY [… (SEQ ID NO: 126)],binds
3,RYFDENIQKFIW [… (SEQ ID NO: 127)],binds
4,TELTEARVQVW [… (SEQ ID NO: 128)],binds
5,EEAMKRLSY [… (SEQ ID NO: 129)],binds
6,REYQEVMNSKL [… (SEQ ID NO: 130)],binds
7,DEIFTNDRRW [… (SEQ ID NO: 3)],binds
8,RESHLTEIRQY [… (SEQ ID NO: 131)],binds
9,AESFTSGRHYW [… (SEQ ID NO: 132)],binds
10,IEAPKLMVV [… (SEQ ID NO: 133)],binds
11,IEIKDRLQL [… (SEQ ID NO: 134)],binds
12,QEIDRGQYI [… (SEQ ID NO: 135)],binds
13,EEMPEEIHL [… (SEQ ID NO: 136)],binds
14,EKGLISAF [EKGLISAF (SEQ ID NO: 137)],binds
15,KEAPNIVTL [… (SEQ ID NO: 138)],binds
16,AESDFSNNML [… (SEQ ID NO: 139)],binds
17,TEHSGIYSC [… (SEQ ID NO: 140)],binds
18,AEALGAAKKL [… (SEQ ID NO: 4)],binds
19,SEKWFRMGF [… (SEQ ID NO: 141)],binds
20,QELFLHPVL [… (SEQ ID NO: 142)],binds
21,HEIIIRSHW [… (SEQ ID NO: 143)],binds
22,IEAYLERIGY [… (SEQ ID NO: 144)],binds
23,EELRMLSF [EELRMLSF (SEQ ID NO: 145)],binds
24,MEELRMLSF [… (SEQ ID NO: 146)],binds
25,RMLSFQQMTW [… (SEQ ID NO: 147)],binds
26,KESDAGRYY [… (SEQ ID NO: 148)],binds

row,Binder,binding
1,AETEPERHLG [… (SEQ ID NO: 149)],binds
2,SEVFHVSEA [… (SEQ ID NO: 150)],binds
3,AELVGPVIPQDW [… (SEQ ID NO: 6)],binds
4,TELQIPSF [TELQIPSF (SEQ ID NO: 151)],binds
5,HENLIEDF [HENLIEDF (SEQ ID NO: 152)],binds
6,IEIILLSGSL [… (SEQ ID NO: 153)],binds
7,NEAGEMIKHY [… (SEQ ID NO: 154)],binds
8,TEDARHPESW [… (SEQ ID NO: 155)],binds
9,SQDVAGTTF [… (SEQ ID NO: 157)],binds
10,VEEERYTGQW [… (SEQ ID NO: 158)],binds
11,EEVQDGKVI [… (SEQ ID NO: 159)],binds
12,AEIATTGQLY [… (SEQ ID NO: 160)],binds
13,GESSEVKAVL [… (SEQ ID NO: 161)],binds
14,SESDLVNFI [… (SEQ ID NO: 7)],binds
15,EAYDIELNKW [… (SEQ ID NO: 162)],binds
16,AEDEDGKIVGY [… (SEQ ID NO: 163)],binds
17,DEDGKIVGY [… (SEQ ID NO: 164)],binds
18,EEIEAHIAL [… (SEQ ID NO: 165)],binds
19,EEQDFINNRY [… (SEQ ID NO: 166)],binds
20,AETENRYCV [… (SEQ ID NO: 167)],binds
21,EEGPSVPKIY [… (SEQ ID NO: 168)],binds
22,KEHNSSVPWSS [… (SEQ ID NO: 169)],binds
23,REMFVFKDQW [… (SEQ ID NO: 170)],binds
24,WEVVHTVF [WEVVHTVF (SEQ ID NO: 171)],binds

# Results are given in words; binding and its absence hold for the method and conditions named. Binding can be weak; no strength is given.
